{"source": "PubChem BioAssay AID1224828 (NIAID, 2016)", "test": "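Regulators linking TLR4 signalling to p65 nuclear translocation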 (primary screen)", "cells": "mouse RAW264.7 G9 macrophage reporter cells (GFP-p65, Tnf promoter-mCherry)", "knock-down reagent": "siRNA pool against mouse genes, 100 nM", "duration": "2 days siRNA transfection, then 40 min LPS before fixation", "challenge": "LPS (Salmonella minnesota R595) at 10 ng/ml", "measured": "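Microscopy ratio of nuclear to perinuclear-ring GFP-p65 signal, scaled to the plate median; gene score is the average of two replicate robust z-scores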", "scale": "p65 translocation robust z-score: higher = more nuclear NF-kappaB p65 after LPS than the plate median; nuclear/cytoplasmic p65 ratio: higher = more nuclear NF-kappaB p65", "call rule": "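Active if robust z is above 3.3 (negative regulators) or below -1.56, the Tlr4 control median (positive regulators); activity score 50 or more; control wells not called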", "meaning of the calls": "active = hit (p65 shift raised or lowered); inactive = no clear change", "note": "Here is one part, drawn at random, of about 17,000 reagents. In the full data, 762 (4.5%) got an active call. 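Active calls include both raised and lowered p65 entry, mostly lowered; wells with fewer than 50 cells lack a z-score.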 Raw values vary from plate to plate and are shown uncorrected. Reagents against one gene are numbered here."}
{"Target gene":"Rnaseh2c (ribonuclease H2, subunit C)","pool no.":1,"nuclear/cytoplasmic p65 ratio, rep 1":1.68,"nuclear/cytoplasmic p65 ratio, rep 2":1.73,"low cell count flag":"fewer than 50 cells per well; well left out of scoring","Call":"inactive"}
{"Target gene":"Adam23 (a disintegrin and metallopeptidase domain 23)","pool no.":1,"p65 translocation robust z-score":-0.29,"nuclear/cytoplasmic p65 ratio, rep 1":1.55,"nuclear/cytoplasmic p65 ratio, rep 2":1.6,"low cell count flag":"enough cells to score","Call":"inactive"}
{"Target gene":"Adam23 (a disintegrin and metallopeptidase domain 23)","pool no.":2,"p65 translocation robust z-score":0.95,"nuclear/cytoplasmic p65 ratio, rep 1":1.53,"nuclear/cytoplasmic p65 ratio, rep 2":1.86,"low cell count flag":"enough cells to score","Call":"inactive"}
{"Target gene":"S100a4 (S100 calcium binding protein A4)","pool no.":1,"p65 translocation robust z-score":0.43,"nuclear/cytoplasmic p65 ratio, rep 1":1.61,"nuclear/cytoplasmic p65 ratio, rep 2":1.54,"low cell count flag":"enough cells to score","Call":"inactive"}
{"Target gene":"Glis1 (GLIS family zinc finger 1)","pool no.":1,"nuclear/cytoplasmic p65 ratio, rep 1":1.27,"nuclear/cytoplasmic p65 ratio, rep 2":1.25,"low cell count flag":"fewer than 50 cells per well; well left out of scoring","Call":"inactive"}
{"Target gene":"Cc2d1b (coiled-coil and C2 domain containing 1B)","pool no.":1,"p65 translocation robust z-score":0.58,"nuclear/cytoplasmic p65 ratio, rep 1":1.32,"nuclear/cytoplasmic p65 ratio, rep 2":1.61,"low cell count flag":"enough cells to score","Call":"inactive"}
{"Target gene":"Kcnip2 (Kv channel-interacting protein 2)","pool no.":1,"p65 translocation robust z-score":-1.16,"nuclear/cytoplasmic p65 ratio, rep 1":1.33,"nuclear/cytoplasmic p65 ratio, rep 2":1.32,"low cell count flag":"enough cells to score","Call":"inactive"}
{"Target gene":"Sh3tc2 (SH3 domain and tetratricopeptide repeats 2)","pool no.":1,"p65 translocation robust z-score":-0.58,"nuclear/cytoplasmic p65 ratio, rep 1":1.49,"nuclear/cytoplasmic p65 ratio, rep 2":1.46,"low cell count flag":"enough cells to score","Call":"inactive"}
{"Target gene":"Nmb (neuromedin B)","pool no.":1,"p65 translocation robust z-score":-0.65,"nuclear/cytoplasmic p65 ratio, rep 1":1.37,"nuclear/cytoplasmic p65 ratio, rep 2":1.33,"low cell count flag":"enough cells to score","Call":"inactive"}
{"Target gene":"Cipc (CLOCK interacting protein, circadian)","pool no.":1,"nuclear/cytoplasmic p65 ratio, rep 1":1.27,"nuclear/cytoplasmic p65 ratio, rep 2":1.22,"low cell count flag":"fewer than 50 cells per well; well left out of scoring","Call":"inactive"}
{"Target gene":"Kcnma1","pool no.":1,"p65 translocation robust z-score":-0.14,"nuclear/cytoplasmic p65 ratio, rep 1":1.48,"nuclear/cytoplasmic p65 ratio, rep 2":1.34,"low cell count flag":"enough cells to score","Call":"inactive"}
{"Target gene":"Epb41l4b (erythrocyte membrane protein band 4.1 like 4b)","pool no.":1,"nuclear/cytoplasmic p65 ratio, rep 1":1.73,"nuclear/cytoplasmic p65 ratio, rep 2":0.728,"low cell count flag":"fewer than 50 cells per well; well left out of scoring","Call":"inactive"}
{"Target gene":"Wwc2 (WW, C2 and coiled-coil domain containing 2)","pool no.":1,"p65 translocation robust z-score":-0.28,"nuclear/cytoplasmic p65 ratio, rep 1":1.48,"nuclear/cytoplasmic p65 ratio, rep 2":1.56,"low cell count flag":"enough cells to score","Call":"inactive"}
{"Target gene":"Xxylt1 (xyloside xylosyltransferase 1)","pool no.":1,"p65 translocation robust z-score":1.71,"nuclear/cytoplasmic p65 ratio, rep 1":1.89,"nuclear/cytoplasmic p65 ratio, rep 2":1.92,"low cell count flag":"enough cells to score","Call":"inactive"}
